The values that follow come from PubChem BioAssay AID240 (DTP/NCI, 2004).

The list does not hold the whole screen: it gathers some chemical classes. Other doses and runs of a compound may be missing. T/C gives the treated animals as a percentage of the vehicle group. Where survival is the endpoint, the PubChem record calls one and a half times the control and up active, and a quarter to a half above the control has no call in these data; cut-offs in other NCI protocols can differ. Some entries show no survivor count and are marked so; the dose need not have been tolerated. Schedule codes are those of the source, taken here to give the interval after Q, in days (D) or hours (H), and the number of doses after X. Some entries were tested several times; the results are listed from low to high.

The subject of the assay is Lymphoma 4 ip in BDF1 mice, median survival. As to the kind of experiment: NCI In Vivo Anticancer Drug Screen. Data for tumor model Lymphoma 4 (intraperitoneal) in B6D2F1 (BDF1) mice. The note with it: T/C endpoint: median survival time, schedule: Q01DX010 (ip), vehicle: saline, higher T/C = longer survival. How it is done:
The antitumor activity of compounds was measured in mice bearing transplantable tumors. Survival or tumor size were measured and the results are expressed as the measurement made in the treated group (T) divided by the measurement made in the vehicle treated control group (C). The tumor model used in this assay is Lymphoma 4 (intraperitoneal) in B6D2F1 (BDF1) mice

Consider `CN(CCCl)CCCl`, for which the T/C is 129 [survivor count not shown] and 130 % of control [survivor count not shown] (dose: 0.13 mg/kg/injection); 135 [survivor count not shown] and 160 % of control [survivor count not shown] (dose: 0.25 mg/kg/injection).
